Results reported in publication PMC9426605.
These are yes or no findings as the source states them, for the method shown. Binding calls can cover weak binding; strength is not graded here. Sequences can lack the tags named with a protein.

Target: DivIC (S. aureus)
Assay: two-hybrid; bacterial two-hybrid, pKT25 and pUT18 derivatives cotransformed in E. coli BTH101, 30°C, 0.5 mM IPTG; spots on X-Gal plates and β-galactosidase activity against MUG; positive cutoff 4-fold greater than T18/T25

binding	Binder
binds	Penicillin-binding protein 1 (PBP1) of Staphylococcus aureus, T25 fusion (enzyme, UniProt Q2FZ94 1-744) MAKQKIKIKKNKIGAVLLVGLFGLLFFILVLRISYIMITGHSNGQDLVMKANEKYLVKNAQQPERGKIYDRNGKVLAEDVERYKLVAVIDKKASANSKKPRHVVDKKETAKKLSTVINMKPEEIEKRLSQKKAFQIEFGRKGTNLTYQDKLKIEKMNLPGISLLPETERFYPNGNFASHLIGRAQKNPDTGELKGALGVEKIFDSYLSGSKGSLRYIHDIWGYIAPNTKKEKQPKRGDDVHLTIDSNIQVFVEEALDGMVERYQPKDLFAVVMDAKTGEILAYSQRPTFNPETGKDFGKKWANDLYQNTYEPGSTFKSYGLAAAIQEGAFDPDKKYKSGHRDIMGSRISDWNRVGWGEIPMSLGFTYSSNTLMMHLQDLVGADKMKSWYERFGFGKSTKGMFDGEAPGQIGWSNELQQKTSSFGQSTTVTPVQMLQAQSAFFNDGNMLKPWFVNSVENPVSKRQFYKGQKQIAGKPITKDTAEKVEKQLDLVVNSKKSHAANYRIDGYEVEGKTGTAQVAAPNGGGYVKGPNPYFVSFMGDAPKKNPKVIVYAGMSLAQKNDQEAYELGVSKAFKPIMENTLKYLNVGKSKDDTSNAEYSKVPDVEGQDKQKAIDNVSAKSLEPVTIGSGTQIKAQSIKAGNKVLPHSKVLLLTDGDLTMPDMSGWTKEDVIAFENLTNIKVNLKGSGFVSHQSISKGQKLTEKDKIDVEFSSENVDSNSTNNSDSNSDDKKKSDSKTDKDKSD
binds	T25-PBP1_(ΔPASTA): S. aureus PBP1 without the PASTA domains (M1-S595) (domain or fragment, UniProt Q2FZ94 1-595) MAKQKIKIKKNKIGAVLLVGLFGLLFFILVLRISYIMITGHSNGQDLVMKANEKYLVKNAQQPERGKIYDRNGKVLAEDVERYKLVAVIDKKASANSKKPRHVVDKKETAKKLSTVINMKPEEIEKRLSQKKAFQIEFGRKGTNLTYQDKLKIEKMNLPGISLLPETERFYPNGNFASHLIGRAQKNPDTGELKGALGVEKIFDSYLSGSKGSLRYIHDIWGYIAPNTKKEKQPKRGDDVHLTIDSNIQVFVEEALDGMVERYQPKDLFAVVMDAKTGEILAYSQRPTFNPETGKDFGKKWANDLYQNTYEPGSTFKSYGLAAAIQEGAFDPDKKYKSGHRDIMGSRISDWNRVGWGEIPMSLGFTYSSNTLMMHLQDLVGADKMKSWYERFGFGKSTKGMFDGEAPGQIGWSNELQQKTSSFGQSTTVTPVQMLQAQSAFFNDGNMLKPWFVNSVENPVSKRQFYKGQKQIAGKPITKDTAEKVEKQLDLVVNSKKSHAANYRIDGYEVEGKTGTAQVAAPNGGGYVKGPNPYFVSFMGDAPKKNPKVIVYAGMSLAQKNDQEAYELGVSKAFKPIMENTLKYLNVGKSKDDTS
